Laboratory results taken from PubChem BioAssay AID540276 (National Center for Advancing Translational Sciences (NCATS), 2011).
Several values for one entry are separate records, joined by “and”; a condition that tells them apart may be missing. Equal entries are not always repeated. Hit rate of the full screen: of about 300,000 compounds, about 5,400 (1.8%) were called active. The shares of active, inactive and inconclusive entries below differ from those in the screen. The call rests on the fitted dose curve; tested in HEK293 cells. Potencies beside an inconclusive call are fits to weak or partial responses and may not hold up.

Assay: qHTS for inhibitors of binding or entry into cells for Marburg Virus
Conditions: Marburg virus pseudotyped entry inhibition, cell reporter; activity change, negative = inhibition: at 37.8 µM (top of the series) unless noted
On the % scale 0 is the no-effect control and ±100 the full control effect; potency means the concentration at half of the fitted maximal effect.

Structure (SMILES)	Potency	activity change, negative = inhibition
CN1C(=O)c2c(sc3c2CC(C)(C)SC3)N2CCN=C12	inactive	
CCOC(=O)c1[nH]c2cc(OC)c(OC)cc2c1NC(=O)CN1CCN(c2ccc(OC)cc2)C(C)C1 (configuration not stated)	inactive	
CC(C)NC(=S)N/N=C1\CCCCC1C1CCCCC1 (configuration not stated)	inconclusive: 23.1 µM [inhibitor, partial curve, poor fit]	
O=C(Nc1cccc2cccnc12)c1cccc2ccccc12	inconclusive: 0.562 µM [inhibitor, partial curve, poor fit]	
S=C(Nc1ccccc1)Nc1nccs1	active: 14.1 µM	
Cc1cc(C)c(S(=O)(=O)c2ccccc2C)c(SCC(C)C)n1	inconclusive: 12.6 µM [inhibitor, single point]	
C=C(C)CNC(=S)N/N=C1\CCCCc2ccccc21	inactive	
CC(=O)Nc1nc2ccc(S(=O)(=O)N3CCCCC3)cc2s1	inactive	
Cc1nn(CC(=O)NCc2ccco2)c(C)c1[N+](=O)[O-]	inconclusive: 22.4 µM [inhibitor, single point]	
CC(C)C(=O)N1CCN(CCN=CC2=C(O)CC(c3ccco3)CC2=O)CC1 (configuration not stated)	inconclusive: 4.11 µM [inhibitor, full curve, poor fit] and inconclusive: 1.26 µM [activator, single point]	
COc1ccc(S(=O)(=O)NCC2CCC(C(=O)NCc3ccco3)CC2)cc1 (configuration not stated)	inconclusive: 20 µM [activator, partial curve, poor fit]	
COc1ccccc1C(=O)NCC(=O)NNC(=O)C1COc2ccccc2O1 (configuration not stated)	inactive	
CC(=O)N1c2ccc(S(=O)(=O)NCC3CCC(C(=O)Nc4ccc(C)cn4)CC3)cc2CC1C (configuration not stated)	inconclusive: 11.2 µM [inhibitor, partial curve, poor fit]	
CCCn1cc(S(=O)(=O)c2ccc(C)cc2)c(=O)c2cc(OC)c(OC)cc21	inconclusive: 8.91 µM [inhibitor, partial curve, poor fit]	
CS(=O)(=O)N(Cc1ccc(Cl)cc1)c1ccc(C(=O)NCCC2=CCCCC2)cc1	inactive	
O=C(NCCN1Cc2ccccc2C1=O)c1cccs1	inconclusive: 1.12 µM [activator, full curve, poor fit]	
O=C(O)c1ccccc1-c1ccccc1C(=O)Nc1ccc2c(c1)CCC2	inconclusive: 5.62 µM [inhibitor, single point]	
C=CCn1c(=NC(=O)c2ccc(S(=O)(=O)N3CCCc4ccccc43)cc2)sc2cc(S(N)(=O)=O)ccc21	inconclusive: 2.82 µM [inhibitor, partial curve, poor fit]	
O=C(CCC(=O)Nc1cc(C(F)(F)F)ccc1Cl)N/N=C\c1cc([N+](=O)[O-])ccc1O	inconclusive: 35.5 µM [inhibitor, single point]	
Cc1ccc(NC(=O)c2c(C(=O)Nc3ccccc3)sc3nc(C)cc(=O)n23)c(C)c1	inactive	
Cc1nn(-c2ccccc2)c(OC(=O)c2ccc(F)cc2)c1S(=O)(=O)c1ccccc1	inactive	

One compound at a time (already shown).
O=C(NCCN1Cc2ccccc2C1=O)c1cccs1 is entered as Potency: inconclusive: 1.12 µM [activator, full curve, poor fit]
CC(C)C(=O)N1CCN(CCN=CC2=C(O)CC(c3ccco3)CC2=O)CC1 (configuration not stated) is entered as Potency: inconclusive: 4.11 µM [inhibitor, full curve, poor fit] and inconclusive: 1.26 µM [activator, single point]

The results go on.

Structure (SMILES)	Potency	activity change, negative = inhibition
Cc1ccc(CSc2nc3ncccc3[nH]2)cc1	inconclusive: 17.8 µM [inhibitor, single point]	
COc1ccc(/C=C2\SC(=O)N(CCC(=O)Nc3ccccc3)C2=O)cc1OC	inactive	
CN1CCN(S(=O)(=O)c2cccc(C(=O)Nc3cccc([N+](=O)[O-])c3)c2)CC1	inconclusive: 1.26 µM [inhibitor, partial curve, poor fit]	
CCn1c(CN2CCCCC2)nc2cc(NC(=O)c3ccccc3[N+](=O)[O-])ccc21	inconclusive: 35.5 µM [inhibitor, single point]	
COc1ccc(/C=C(\C#N)c2c[nH]c3ccccc23)cc1	inconclusive: 3.66 µM [inhibitor, partial curve, poor fit]	
CCOCc1c(C(=O)OCC(=O)Nc2ccc(C)c(S(=O)(=O)N(C)C)c2)oc2ccccc12	inconclusive: 2 µM [activator, single point]	
COC(=O)c1ccc(C2c3c(oc4ccc(Cl)cc4c3=O)C(=O)N2CCN2CCOCC2)cc1 (configuration not stated)	inconclusive: 35.5 µM [inhibitor, single point]	
Cc1nc2ccccn2c(=O)c1NC(=O)c1cccs1		inconclusive: 37.6% [activator]
CCN(c1ccccc1)S(=O)(=O)c1ccc(NC(=O)c2cc(=O)c3cc(C)ccc3o2)cc1	inactive	
O=C(c1ccc2c(c1)N(Cc1ccc(F)cc1)C(=O)c1ccccc1S2=O)N1CCOCC1 (configuration not stated)	inconclusive: 35.5 µM [activator, single point]	
CCCCC(c1nnnn1C1CCCC1)N1CCN(C(=O)c2ccco2)CC1 (configuration not stated)	inactive	
Cc1cc(Cl)ccc1NC(=S)N(CCCN1CCOCC1)Cc1cccs1	inconclusive: 20 µM [inhibitor, partial curve, poor fit]	
Cc1nn2c(COc3ccc(NC(=O)c4ccccc4Cl)cc3)nnc2c2ccccc12	active: 7.08 µM	
CNCc1ccccc1Sc1ccc(OC)cc1	inconclusive: 28.2 µM [inhibitor, single point]	
COc1cc(NC(=O)c2cc(OC)c(OC)c(OC)c2)c(OC)cc1NC(=O)CN1CCCCC1	inconclusive: 15.8 µM [inhibitor, single point]	
CCOc1ccccc1C1N(c2ccc(F)cc2)C(=O)C2CCCN21 (configuration not stated)	inconclusive: 6.51 µM [inhibitor, single point]	
CC(C)(C)NC(=O)N1CCN(c2nc3ccc(Cl)cc3s2)CC1	inconclusive: 31.6 µM [inhibitor, single point]	
CNC(=O)c1ccsc1NC(=O)CCS(=O)(=O)c1ccc(F)cc1	inconclusive: 1.26 µM [inhibitor, partial curve, poor fit]	
COc1ccc(Cl)cc1NC(=O)CSc1c2c(nc3ccccc13)CCC2	inactive	
CC(=O)c1ccc(N2CCN(C(=O)c3ccc(OCc4c(C)noc4C)cc3)CC2)cc1	inconclusive: 29.1 µM [inhibitor, single point]	
COC(=O)c1c(C)oc2ccc(NS(=O)(=O)c3cccs3)cc12	inconclusive: 14.6 µM [inhibitor, partial curve, poor fit]	
